# Some of the results follow. Further columns of the screen follow, without active or inactive calls. Most of these compounds were active or inconclusive in the main read-out, so they are no random draw. The note in brackets gives the kind of curve behind each potency; many fits are weak.
# Experiment: qHTS Assay for Lipid Storage Modulators in Drosophila S3 Cells;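 as to cell number change: cells counted by Cell Tracker Red CMTPX staining in the red channel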
# Conditions: BODIPY lipid droplet fluorescence, 18-24 h; for cell number change: measured here: cell count max response, cells fed with added oleic acid
# Summary of the method: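 Laser-scanning cytometry quantifies lipid droplet accumulation (500–530 nm total intensity; droplet/cell object ratio) in oleic acid-fed (400 uM added) Drosophila S3 cells treated with a concentration series. 20 uM Triacsin C defined 100% inhibition.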
# [1] = measured here: cell number channel AC50, cells fed with added oleic acid
# [2] = measured here: lipid fluorescence (Fed channel) AC50, cells fed with added oleic acid
Compound,cell number change,AC50 [1],AC50 [2]
COc1cccc(C(C)NC(=O)c2ccncc2)c1 (configuration not stated),-22.5%,,
CC(C)COc1ccc(C(=O)Nc2ncn[nH]2)cc1,-11.2%,,
COc1ccccc1NS(=O)(=O)c1cc(C(=O)N2CCCCCCC2)ccc1C,,"2.06 µM [rising, partial curve, poor fit]",
Cc1ccc(C(=O)NCCCN2CCOCC2)cc1S(=O)(=O)N1CCOCC1,13.8%,,"1.84 µM [falling, partial curve, poor fit]"
CCc1c(C)nc2c(Br)cccc2c1SCCC#N,-3.3%,,"29.1 µM [rising, single point]"
COc1cccc(CNC(=O)CCC(=O)n2ncc3cc(C)ccc32)c1OC,8.36%,"0.731 µM [rising, single point]","1.84 µM [rising, partial curve, poor fit]"
O=C(CN1C(=O)C2CCCCC2C1=O)Nc1ccc(S(=O)(=O)Nc2ncccn2)cc1 (configuration not stated),-20.3%,,
CN(C)CCCNC(=O)CC(c1ccccc1)c1ccccc1O (configuration not stated),-14.5%,"6.51 µM [falling, single point]","14.6 µM [falling, partial curve]"
Cc1ccccc1S(=O)(=O)Cc1ccc(C(=O)N2CCN(c3cccc(C)c3C)CC2)o1,,"6.51 µM [rising, single point]","6.51 µM [rising, single point]"
CC(=O)Nc1ccc(NC(=O)CC2Nc3cccc4cccc(c34)NC2=O)cc1 (configuration not stated),-11.7%,,
CCc1ccc(NC(=O)Cn2ncn3c(cc4ccccc43)c2=O)cc1,11.2%,,"6.51 µM [falling, single point]"
CCOc1ccc(N(Cc2cc3cc(C)ccc3[nH]c2=O)C(=O)COC)cc1,-12%,,
CCOC(=O)CNNC(=O)Nc1ccc(Cl)c(Cl)c1,,,"29.1 µM [rising, single point]"
O=C(CCCCCn1c(=O)[nH]c2ccccc2c1=O)NCCc1c[nH]c2ccccc12,-23.7%,,"29.1 µM [falling, single point]"
Cc1cc(O)cc(=O)n1Cc1ccco1,28.3%,,"5.17 µM [rising, partial curve]"
C/C=C/C1=CC(=O)C[C@H](c2ccc(OC)c(OC)c2)C1,-3.5%,"0.00517 µM [falling, full curve, poor fit]","0.00517 µM [falling, full curve, poor fit]"
CCN(CC(=O)N1CCOCC1)S(=O)(=O)c1ccc2ccccc2c1,6.5%,,"0.146 µM [rising, full curve, poor fit]"
CCOC(=O)Cn1nc(C)c(NC(=O)c2ccc(Br)o2)c1C,34.3%,,"29.1 µM [rising, single point]"

# Two records drawn at random from those above, as already listed:
Compound,cell number change,AC50 [1],AC50 [2]
CCN(CC(=O)N1CCOCC1)S(=O)(=O)c1ccc2ccccc2c1,6.5%,,"0.146 µM [rising, full curve, poor fit]"
CC(=O)Nc1ccc(NC(=O)CC2Nc3cccc4cccc(c34)NC2=O)cc1 (configuration not stated),-11.7%,,

# Source: PubChem BioAssay AID2685 (National Center for Advancing Translational Sciences (NCATS), 2010)
